Measured values as given in article PMC8136771.
For at least one entry, the source does not settle the construct or the ends of the probe. No signal at the amounts used counts as a negative. For part of these data: At least one verdict was read from the data and is not stated in words by the source. For part of these data: Where a protein sequence is shown, tags need not be part of it.

Chains of the proteins cited; added tags and fusions are not shown. Where a name states a change or a piece, a line headed by the entry shows the natural chain unless it says otherwise. A line that says so, or that is headed by a name, gives the form on record, which may keep a tag or linker.
UniProt Q9H974: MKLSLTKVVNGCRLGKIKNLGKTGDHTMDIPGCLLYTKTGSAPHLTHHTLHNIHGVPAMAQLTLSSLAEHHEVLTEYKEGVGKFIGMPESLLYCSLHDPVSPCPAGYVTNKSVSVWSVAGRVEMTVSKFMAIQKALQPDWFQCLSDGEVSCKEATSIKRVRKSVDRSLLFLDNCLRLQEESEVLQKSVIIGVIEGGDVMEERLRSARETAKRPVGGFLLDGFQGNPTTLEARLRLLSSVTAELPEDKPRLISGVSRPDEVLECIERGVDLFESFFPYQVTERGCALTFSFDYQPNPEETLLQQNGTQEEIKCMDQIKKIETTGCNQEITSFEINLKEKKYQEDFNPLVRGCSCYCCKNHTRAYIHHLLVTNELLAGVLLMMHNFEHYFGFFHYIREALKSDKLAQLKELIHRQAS
His-hQTRT1 (catalytic subunit of human TGT) + StrepII-hQTRT2 (noncatalytic subunit), one chain, as listed by the source: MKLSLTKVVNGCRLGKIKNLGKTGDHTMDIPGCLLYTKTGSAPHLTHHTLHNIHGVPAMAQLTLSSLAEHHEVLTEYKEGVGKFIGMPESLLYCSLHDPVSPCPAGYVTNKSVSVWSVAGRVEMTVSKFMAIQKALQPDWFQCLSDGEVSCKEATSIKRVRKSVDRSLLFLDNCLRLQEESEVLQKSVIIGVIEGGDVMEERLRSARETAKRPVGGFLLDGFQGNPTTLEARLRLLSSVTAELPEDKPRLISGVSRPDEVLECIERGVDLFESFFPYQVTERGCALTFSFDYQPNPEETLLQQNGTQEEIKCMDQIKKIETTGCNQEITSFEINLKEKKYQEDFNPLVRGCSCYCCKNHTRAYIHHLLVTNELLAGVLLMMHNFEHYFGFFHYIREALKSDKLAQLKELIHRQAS

Experiments:
Test in all cases: denaturing EMSA of covalent intermediate
[1] = target: T1, His-hQTRT1 (catalytic subunit of human TGT) (human) (UniProt Q9BXR0); conditions: 9-deazaguanine, without QTRT2; RBT buffer: 50 mM Tris-HCl pH 7.5, 20 mM NaCl, 5 mM MgCl2, 2 mM DTT, 37 C, 1-1.5 h, with 9-deazaguanine (25-50 uM); capture-release with poly(U) and ArgSL competitors; recombinant protein; protein details: N-terminal His
T1 sequence (looked up, limits assumed): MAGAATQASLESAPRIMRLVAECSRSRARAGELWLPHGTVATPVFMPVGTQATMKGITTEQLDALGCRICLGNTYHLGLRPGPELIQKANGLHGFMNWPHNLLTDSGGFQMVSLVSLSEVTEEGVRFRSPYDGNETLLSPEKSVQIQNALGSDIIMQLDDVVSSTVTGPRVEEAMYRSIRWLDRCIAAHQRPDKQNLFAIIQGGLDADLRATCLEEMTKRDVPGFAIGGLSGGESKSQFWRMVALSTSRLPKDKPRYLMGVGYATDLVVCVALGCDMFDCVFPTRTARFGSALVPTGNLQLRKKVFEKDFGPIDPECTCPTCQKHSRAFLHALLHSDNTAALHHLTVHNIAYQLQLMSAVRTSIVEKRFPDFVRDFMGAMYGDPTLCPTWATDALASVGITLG

[2] = system: His-hQTRT1 (catalytic subunit of human TGT) + StrepII-hQTRT2 (noncatalytic subunit); conditions: without 9-deazaguanine (covalent complex only); RBT buffer: 50 mM Tris-HCl pH 7.5, 20 mM NaCl, 5 mM MgCl2, 2 mM DTT, 37 C, 1-1.5 h, with 9-deazaguanine (25-50 uM); capture-release with poly(U) and ArgSL competitors; recombinant protein; protein details: N-terminal His,N-terminal StrepII-SUMO
[3] = target: StrepII-hQTRT2 (noncatalytic subunit) (human) (UniProt Q9H974); conditions: 9-deazaguanine, without QTRT1; RBT buffer: 50 mM Tris-HCl pH 7.5, 20 mM NaCl, 5 mM MgCl2, 2 mM DTT, 37 C, 1-1.5 h, with 9-deazaguanine (25-50 uM); capture-release with poly(U) and ArgSL competitors; recombinant protein; protein details: N-terminal StrepII-SUMO

Measured: binding result

CCCCGCCUGUCACGCGGGA [Aspartyl anticodon stem loop (AspSL)]
no binding: all assays above
